{"source": "paper PMC5717335", "binders": {"B1": {"name": "Ndc80 (Nuclear division cycle protein 80), O14777 1-642 (protein)", "chain": "MKRSSVSSGGAGRLSMQELRSQDVNKQGLYTPQTKEKPTFGKLSINKPTSERKVSLFGKRTSGHGSRNSQLGIFSSSEKIKDPRPLNDKAFIQQCIRQLCEFLTENGYAHNVSMKSLQAPSVKDFLKIFTFLYGFLCPSYELPDTKFEEEVPRIFKDLGYPFALSKSSMYTVGAPHTWPHIVAALVWLIDCIKIHTAMKESSPLFDDGQPWGEETEDGIMHNKLFLDYTIKCYESFMSGADSFDEMNAELQSKLKDLFNVDAFKLESLEAKNRALNEQIARLEQEREKEPNRLESLRKLKASLQGDVQKYQAYMSNLESHSAILDQKLNGLNEEIARVELECETIKQENTRLQNIIDNQKYSVADIERINHERNELQQTINKLTKDLEAEQQKLWNEELKYARGKEAIETQLAEYHKLARKLKLIPKGAENSKGYDFEIKFNPEAGANCLVKYRAQVYVPLKELLNETEEEINKALNKKMGLEDTLEQLNAMITESKRSVRTLKEEVQKLDDLYQQKIKEAEEEDEKCASELESLEKHKHLLESTVNQGLSEAMNELDAVQREYQLVVQTTTEERRKVGNNLQRLLEMVATHVGSVEKHLEEQIAKVDREYEECMSEDLSENIKEIRDKYEKKATLIKSSEE"}}, "target": "Bod1-GFP (human), Q96IK1", "experiment": "affinity purification with mass spectrometry; GFP Binder (Chromotek) affinity purification of Bod1-GFP from lysates of HeLa cells arrested in mitosis with STLC, 90 min at 4°C; label-free quantitative MS against cells expressing GFP alone; n = 4 biological replicates", "conditions": "remark: other sources report otherwise", "note": "No constants are given. Whether binding was seen depends on the method and setting. Binding seen in cells or lysates may run through a third protein. A yes stands for co-enrichment or nearness to the bait. Other partners may have been found.", "data": [{"binder": "B1", "values": [{"measurement": "binding", "result": "binds"}]}]}
